Measured values published in patent US11299538B2, “Anti-IGF antibodies” (Boehringer Ingelheim International GmbH, priority 2008, dated 2022).
At least one compound was matched to its structure with a doubt left.

Key:
[1] = test system: phosphorylation of AKT; assay: Western blot analysis of phosphorylated AKT in SK-ES-1 cells; assay type: cell-based; details: 24 hours, 100 nM doses, FIG. 9
[2] = test system: PTEN; assay: Western blot analysis of PTEN levels in SK-ES-1 cells; assay type: cell-based; details: 24 hours, 100 nM doses, FIG. 9

## CO[C@H]1C[C@@H]2CC[C@@H](C)[C@@](O)(O2)C(=O)C(=O)N2CCCC[C@H]2C(=O)O[C@H]([C@H](C)C[C@@H]2CC[C@@H](O)[C@H](OC)C2)CC(=O)[C@H](C)/C=C(\C)[C@@H](O)[C@@H](OC)C(=O)[C@H](C)C[C@H](C)/C=C/C=C/C=C/1C [rapamycin, reference compound]
[1]
  phosphorylation of AKT: higher levels of phosphorylated AKT than the control
[2]
  total levels of PTEN: do not affect
